Publication doi:10.1101/2023.10.12.562097
Results are given in words; binding and its absence hold for the method and conditions named. In cells and extracts the contact can be indirect. For part of these data: Binding calls can cover weak binding; strength is not graded here. Tags and fused reporters may be left off the sequences shown.

Tests used:
Test in all cases: co-IP
[1] = molecular target: T1, FLAG-TRIP6 amino-terminal half (amino acids 1-277) (UniProt Q15654)
T1 sequence: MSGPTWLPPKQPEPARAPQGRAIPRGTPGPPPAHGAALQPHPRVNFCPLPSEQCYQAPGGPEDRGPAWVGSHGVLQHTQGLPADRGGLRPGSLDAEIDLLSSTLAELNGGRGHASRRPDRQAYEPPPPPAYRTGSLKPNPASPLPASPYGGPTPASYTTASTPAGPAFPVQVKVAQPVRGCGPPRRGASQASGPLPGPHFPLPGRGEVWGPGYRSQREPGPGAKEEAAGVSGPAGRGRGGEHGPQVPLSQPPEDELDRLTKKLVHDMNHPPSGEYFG

FLAG-TRIP6 Δ1-9 = molecular target: T2, FLAG-TRIP6 Δ1-9 (UniProt Q15654)
T2 sequence: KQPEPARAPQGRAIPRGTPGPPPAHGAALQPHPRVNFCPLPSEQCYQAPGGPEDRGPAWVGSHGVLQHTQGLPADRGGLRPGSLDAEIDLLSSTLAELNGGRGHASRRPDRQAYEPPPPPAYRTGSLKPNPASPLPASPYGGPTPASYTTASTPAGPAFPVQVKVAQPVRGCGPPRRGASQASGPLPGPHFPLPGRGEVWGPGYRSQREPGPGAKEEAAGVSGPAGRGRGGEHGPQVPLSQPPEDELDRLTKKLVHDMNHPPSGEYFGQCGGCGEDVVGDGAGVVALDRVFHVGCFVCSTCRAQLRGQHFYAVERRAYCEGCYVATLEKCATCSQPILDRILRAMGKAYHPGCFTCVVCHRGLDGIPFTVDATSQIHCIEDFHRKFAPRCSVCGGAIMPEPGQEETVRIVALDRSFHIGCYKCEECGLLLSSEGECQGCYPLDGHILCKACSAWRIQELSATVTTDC

FLAG-TRIP6 Δ252-277 = molecular target: T3, FLAG-TRIP6 Δ252-277 (UniProt Q15654)
T3 sequence: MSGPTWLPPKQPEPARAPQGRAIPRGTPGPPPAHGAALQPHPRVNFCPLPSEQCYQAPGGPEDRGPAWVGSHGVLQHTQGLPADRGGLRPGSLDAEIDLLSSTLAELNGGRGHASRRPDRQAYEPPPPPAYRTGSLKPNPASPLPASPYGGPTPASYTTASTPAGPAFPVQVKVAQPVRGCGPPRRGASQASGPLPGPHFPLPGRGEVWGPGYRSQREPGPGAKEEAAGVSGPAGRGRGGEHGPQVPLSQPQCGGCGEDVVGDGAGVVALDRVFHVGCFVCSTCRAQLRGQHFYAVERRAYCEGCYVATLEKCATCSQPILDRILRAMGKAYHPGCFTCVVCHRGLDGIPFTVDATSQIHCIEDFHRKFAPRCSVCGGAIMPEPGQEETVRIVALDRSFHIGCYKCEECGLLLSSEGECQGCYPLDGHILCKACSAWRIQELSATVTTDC

binding [1]: binds
binding (FLAG-TRIP6 Δ1-9): binds
binding (FLAG-TRIP6 Δ252-277): no binding
Substance: vinculin (from UniProt P18206-2)
